Results are given in words; binding and its absence hold for the method and conditions named. In cells and extracts the contact can be indirect. Binding calls can cover weak binding; strength is not graded here. Sequences can lack the tags named with a protein.
B1: Strep-GFP-tagged Haus3 (protein, UniProt Q6DCY9 1-597)
chain: MSGGDRFVQTLQKLNYPKGAQLDGEDFDWLFEAVDLKPFLDWFCSAASEQNVVPDEKLQAFNTLKESGKPVLDEKALDEVLKTFSISKVPAIEEVAIEKLEEEVKALQKQKNLHIRRRNKLQMVESGNRQMCLKSKDKEEETGRAFQEVLHLLRVTNKKLNHELQSIVNGVQTLMSFFSTPETACELSSQPIFLSQLLLDKYLSLEEQSTAALTSFTKEHFFEGMSKFVEGSDENFQLVQLNVNSFGEDGTTEDKCKEMMRLQLAYICAKHKLIQMKAKSASLKVGLQWAENNASVVQDKASQKEENLKVRITSLKNETLQIENHTNSISNEKLPGLVRDNAQLLNMPIVKGDYDLQMAHQTSCSSRQDLVCDHLMKQKASFELLQLGYELELRKHRDVYRELGSIVQELKESGDKLEERLTMLSDVNLLSASKPRSNIDSKDLTSHRLYQLLDGDNTQKLFRTYDGLESVAQKLSQDIASMRDQLEVSEQEHSLLLSKLDSHLKELRDFMYPEGNTLMLTTPELSGEFHQLGSQLEKLNHITVEILGDLQLKRKMLESNKLQQIEKQLYVYFFQNEEQLKSIVGKLEAQTGGGSSA
B2: Strep-GFP-tagged Haus8 (subunit of full-length augmin and of T-II) (protein, UniProt Q0IHJ3 1-367)
chain: MSEAGVAPIEDGSQNSSGGSSGDAALKKSKGGAKVVKSRYMQIGRSKVSKNSLANTTVCSGGKVPERGSGGTPTRRSLAPHKAKITAAVPLPALDGSIFTKEDLQSTLLDGHRIARPDLDLSVINDRTLQKITPRPVVTSEQKKPKRDTTPVNLVPEDMVEMIESQTLLLTYLTIKMQKNLFRLEEKAERNLLLVNDQKDQLQETIHMMKRDLTLLQREERLRDLIEKQDEVLTPVVTSKDPFKDNYTTFATALDSTRHQLAIKNIHITGNRHRYLEELQKHLAITKSLLEEIMPSHASENAESFDTIKDLENIVLKTDEELARSFRQILDLSFKVNKEISLQSQKAVEETCESALVRQWYFDGSLP

Molecular target: Haus6 with an N-terminal HRV3C-cleavable ZZ-tag (X. laevis)
Assay: co-purification (IgG Sepharose by ZZ-Haus6), Western blot; subunits co-expressed in Sf9; complex held by ZZ-Haus6 on IgG Sepharose, eluted by HRV3C, then Superose 6 or Ni2+ agarose; Strep-tagged Haus3 and Haus8 found by α-Strep blot

Binder	binding
B1	binds
B2	binds

Reference: paper PMC10318467
